Consider eleven molecules from publication PMC3428324.

Chains of the proteins cited; added tags and fusions are not shown.
UniProt P43249: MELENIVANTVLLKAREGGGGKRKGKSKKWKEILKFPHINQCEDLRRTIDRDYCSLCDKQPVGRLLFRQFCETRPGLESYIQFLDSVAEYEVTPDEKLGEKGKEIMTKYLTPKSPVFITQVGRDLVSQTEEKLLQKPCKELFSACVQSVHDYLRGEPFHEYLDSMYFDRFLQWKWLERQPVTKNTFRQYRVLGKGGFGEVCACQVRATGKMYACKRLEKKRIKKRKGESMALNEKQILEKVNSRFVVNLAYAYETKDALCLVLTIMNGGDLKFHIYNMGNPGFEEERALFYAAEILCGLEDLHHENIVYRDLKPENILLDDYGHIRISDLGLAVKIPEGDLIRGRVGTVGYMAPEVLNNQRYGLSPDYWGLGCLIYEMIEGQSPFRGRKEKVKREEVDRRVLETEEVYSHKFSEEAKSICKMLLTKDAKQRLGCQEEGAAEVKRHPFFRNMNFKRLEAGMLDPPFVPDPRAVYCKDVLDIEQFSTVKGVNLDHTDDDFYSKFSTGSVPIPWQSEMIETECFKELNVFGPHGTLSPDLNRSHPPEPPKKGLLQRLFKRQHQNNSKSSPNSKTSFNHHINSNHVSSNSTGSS
UniProt Q13620: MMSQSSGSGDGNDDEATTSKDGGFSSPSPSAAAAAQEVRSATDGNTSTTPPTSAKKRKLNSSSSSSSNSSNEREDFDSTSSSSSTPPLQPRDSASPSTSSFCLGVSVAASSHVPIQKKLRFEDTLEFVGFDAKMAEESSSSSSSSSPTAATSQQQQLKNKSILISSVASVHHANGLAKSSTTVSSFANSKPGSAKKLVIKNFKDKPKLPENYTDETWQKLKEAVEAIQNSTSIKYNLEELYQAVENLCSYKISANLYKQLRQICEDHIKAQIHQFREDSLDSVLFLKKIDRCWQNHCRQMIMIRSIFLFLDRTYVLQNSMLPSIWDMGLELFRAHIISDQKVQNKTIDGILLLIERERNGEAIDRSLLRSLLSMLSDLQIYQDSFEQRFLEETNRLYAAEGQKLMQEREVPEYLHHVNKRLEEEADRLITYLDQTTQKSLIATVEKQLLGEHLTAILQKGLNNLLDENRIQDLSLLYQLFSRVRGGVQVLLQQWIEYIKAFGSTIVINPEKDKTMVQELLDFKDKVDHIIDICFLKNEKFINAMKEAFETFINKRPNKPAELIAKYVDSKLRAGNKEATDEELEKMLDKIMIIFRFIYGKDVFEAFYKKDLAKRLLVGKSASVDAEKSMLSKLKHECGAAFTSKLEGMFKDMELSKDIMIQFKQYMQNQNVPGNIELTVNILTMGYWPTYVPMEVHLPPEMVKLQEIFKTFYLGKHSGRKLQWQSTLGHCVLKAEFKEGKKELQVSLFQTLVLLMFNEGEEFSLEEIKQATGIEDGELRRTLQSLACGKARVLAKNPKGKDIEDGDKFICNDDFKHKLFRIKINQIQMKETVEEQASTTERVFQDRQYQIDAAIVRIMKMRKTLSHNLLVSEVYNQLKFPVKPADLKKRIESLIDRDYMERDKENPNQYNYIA
UniProt Q6UXN9: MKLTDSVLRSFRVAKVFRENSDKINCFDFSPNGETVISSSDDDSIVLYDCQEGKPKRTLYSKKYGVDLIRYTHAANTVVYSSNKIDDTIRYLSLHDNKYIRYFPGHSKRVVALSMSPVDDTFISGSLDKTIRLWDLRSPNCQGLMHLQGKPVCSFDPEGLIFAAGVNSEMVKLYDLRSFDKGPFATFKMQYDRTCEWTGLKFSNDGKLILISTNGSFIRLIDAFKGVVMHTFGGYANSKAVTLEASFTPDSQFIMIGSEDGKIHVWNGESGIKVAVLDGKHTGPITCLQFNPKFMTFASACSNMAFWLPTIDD
UniProt Q16531: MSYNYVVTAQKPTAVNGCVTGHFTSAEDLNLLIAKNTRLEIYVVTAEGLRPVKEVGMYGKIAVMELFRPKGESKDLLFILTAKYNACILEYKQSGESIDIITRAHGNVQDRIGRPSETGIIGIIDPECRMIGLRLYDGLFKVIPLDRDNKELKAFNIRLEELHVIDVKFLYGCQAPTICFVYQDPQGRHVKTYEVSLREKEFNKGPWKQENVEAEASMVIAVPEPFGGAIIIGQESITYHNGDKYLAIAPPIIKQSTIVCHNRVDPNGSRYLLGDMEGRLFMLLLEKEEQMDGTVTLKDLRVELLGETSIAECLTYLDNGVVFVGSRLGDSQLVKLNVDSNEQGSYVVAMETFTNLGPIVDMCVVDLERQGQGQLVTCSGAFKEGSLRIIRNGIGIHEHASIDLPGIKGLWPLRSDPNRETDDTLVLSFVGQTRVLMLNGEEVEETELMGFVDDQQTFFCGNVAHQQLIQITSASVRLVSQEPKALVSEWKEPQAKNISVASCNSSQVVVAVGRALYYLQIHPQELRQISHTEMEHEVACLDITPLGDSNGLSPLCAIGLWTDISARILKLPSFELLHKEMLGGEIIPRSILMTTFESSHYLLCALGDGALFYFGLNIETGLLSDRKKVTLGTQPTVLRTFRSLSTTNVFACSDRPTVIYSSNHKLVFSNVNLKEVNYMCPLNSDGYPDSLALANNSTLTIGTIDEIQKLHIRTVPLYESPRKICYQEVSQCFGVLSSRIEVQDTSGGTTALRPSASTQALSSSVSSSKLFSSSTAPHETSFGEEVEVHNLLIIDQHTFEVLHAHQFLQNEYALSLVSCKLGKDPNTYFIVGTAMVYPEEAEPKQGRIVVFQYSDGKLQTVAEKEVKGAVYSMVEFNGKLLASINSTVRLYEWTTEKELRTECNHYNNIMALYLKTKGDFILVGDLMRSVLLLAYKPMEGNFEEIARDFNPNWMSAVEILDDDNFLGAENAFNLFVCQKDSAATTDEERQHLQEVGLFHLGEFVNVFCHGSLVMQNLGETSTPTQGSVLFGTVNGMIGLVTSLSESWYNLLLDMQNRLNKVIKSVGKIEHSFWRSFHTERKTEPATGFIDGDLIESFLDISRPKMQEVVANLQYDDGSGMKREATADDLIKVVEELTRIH
UniProt P08238: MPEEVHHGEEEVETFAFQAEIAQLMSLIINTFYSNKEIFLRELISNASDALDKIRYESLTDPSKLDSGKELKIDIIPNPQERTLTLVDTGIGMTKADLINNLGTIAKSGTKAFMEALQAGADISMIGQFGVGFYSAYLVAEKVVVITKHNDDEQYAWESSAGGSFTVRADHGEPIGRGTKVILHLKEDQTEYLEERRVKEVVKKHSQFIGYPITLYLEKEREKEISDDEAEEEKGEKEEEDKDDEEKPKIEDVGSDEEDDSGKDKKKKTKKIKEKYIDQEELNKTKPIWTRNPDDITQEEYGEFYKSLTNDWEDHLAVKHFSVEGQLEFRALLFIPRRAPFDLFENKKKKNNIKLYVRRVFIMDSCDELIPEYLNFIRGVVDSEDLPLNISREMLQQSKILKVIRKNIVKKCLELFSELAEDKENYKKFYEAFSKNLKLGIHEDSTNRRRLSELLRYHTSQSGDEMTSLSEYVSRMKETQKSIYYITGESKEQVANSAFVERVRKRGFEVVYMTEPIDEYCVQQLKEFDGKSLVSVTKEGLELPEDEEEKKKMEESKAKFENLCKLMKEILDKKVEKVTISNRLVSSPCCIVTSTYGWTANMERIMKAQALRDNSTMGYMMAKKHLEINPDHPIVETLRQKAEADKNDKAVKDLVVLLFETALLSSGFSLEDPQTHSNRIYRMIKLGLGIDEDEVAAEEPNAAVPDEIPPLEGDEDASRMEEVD
UniProt Q9UQ35: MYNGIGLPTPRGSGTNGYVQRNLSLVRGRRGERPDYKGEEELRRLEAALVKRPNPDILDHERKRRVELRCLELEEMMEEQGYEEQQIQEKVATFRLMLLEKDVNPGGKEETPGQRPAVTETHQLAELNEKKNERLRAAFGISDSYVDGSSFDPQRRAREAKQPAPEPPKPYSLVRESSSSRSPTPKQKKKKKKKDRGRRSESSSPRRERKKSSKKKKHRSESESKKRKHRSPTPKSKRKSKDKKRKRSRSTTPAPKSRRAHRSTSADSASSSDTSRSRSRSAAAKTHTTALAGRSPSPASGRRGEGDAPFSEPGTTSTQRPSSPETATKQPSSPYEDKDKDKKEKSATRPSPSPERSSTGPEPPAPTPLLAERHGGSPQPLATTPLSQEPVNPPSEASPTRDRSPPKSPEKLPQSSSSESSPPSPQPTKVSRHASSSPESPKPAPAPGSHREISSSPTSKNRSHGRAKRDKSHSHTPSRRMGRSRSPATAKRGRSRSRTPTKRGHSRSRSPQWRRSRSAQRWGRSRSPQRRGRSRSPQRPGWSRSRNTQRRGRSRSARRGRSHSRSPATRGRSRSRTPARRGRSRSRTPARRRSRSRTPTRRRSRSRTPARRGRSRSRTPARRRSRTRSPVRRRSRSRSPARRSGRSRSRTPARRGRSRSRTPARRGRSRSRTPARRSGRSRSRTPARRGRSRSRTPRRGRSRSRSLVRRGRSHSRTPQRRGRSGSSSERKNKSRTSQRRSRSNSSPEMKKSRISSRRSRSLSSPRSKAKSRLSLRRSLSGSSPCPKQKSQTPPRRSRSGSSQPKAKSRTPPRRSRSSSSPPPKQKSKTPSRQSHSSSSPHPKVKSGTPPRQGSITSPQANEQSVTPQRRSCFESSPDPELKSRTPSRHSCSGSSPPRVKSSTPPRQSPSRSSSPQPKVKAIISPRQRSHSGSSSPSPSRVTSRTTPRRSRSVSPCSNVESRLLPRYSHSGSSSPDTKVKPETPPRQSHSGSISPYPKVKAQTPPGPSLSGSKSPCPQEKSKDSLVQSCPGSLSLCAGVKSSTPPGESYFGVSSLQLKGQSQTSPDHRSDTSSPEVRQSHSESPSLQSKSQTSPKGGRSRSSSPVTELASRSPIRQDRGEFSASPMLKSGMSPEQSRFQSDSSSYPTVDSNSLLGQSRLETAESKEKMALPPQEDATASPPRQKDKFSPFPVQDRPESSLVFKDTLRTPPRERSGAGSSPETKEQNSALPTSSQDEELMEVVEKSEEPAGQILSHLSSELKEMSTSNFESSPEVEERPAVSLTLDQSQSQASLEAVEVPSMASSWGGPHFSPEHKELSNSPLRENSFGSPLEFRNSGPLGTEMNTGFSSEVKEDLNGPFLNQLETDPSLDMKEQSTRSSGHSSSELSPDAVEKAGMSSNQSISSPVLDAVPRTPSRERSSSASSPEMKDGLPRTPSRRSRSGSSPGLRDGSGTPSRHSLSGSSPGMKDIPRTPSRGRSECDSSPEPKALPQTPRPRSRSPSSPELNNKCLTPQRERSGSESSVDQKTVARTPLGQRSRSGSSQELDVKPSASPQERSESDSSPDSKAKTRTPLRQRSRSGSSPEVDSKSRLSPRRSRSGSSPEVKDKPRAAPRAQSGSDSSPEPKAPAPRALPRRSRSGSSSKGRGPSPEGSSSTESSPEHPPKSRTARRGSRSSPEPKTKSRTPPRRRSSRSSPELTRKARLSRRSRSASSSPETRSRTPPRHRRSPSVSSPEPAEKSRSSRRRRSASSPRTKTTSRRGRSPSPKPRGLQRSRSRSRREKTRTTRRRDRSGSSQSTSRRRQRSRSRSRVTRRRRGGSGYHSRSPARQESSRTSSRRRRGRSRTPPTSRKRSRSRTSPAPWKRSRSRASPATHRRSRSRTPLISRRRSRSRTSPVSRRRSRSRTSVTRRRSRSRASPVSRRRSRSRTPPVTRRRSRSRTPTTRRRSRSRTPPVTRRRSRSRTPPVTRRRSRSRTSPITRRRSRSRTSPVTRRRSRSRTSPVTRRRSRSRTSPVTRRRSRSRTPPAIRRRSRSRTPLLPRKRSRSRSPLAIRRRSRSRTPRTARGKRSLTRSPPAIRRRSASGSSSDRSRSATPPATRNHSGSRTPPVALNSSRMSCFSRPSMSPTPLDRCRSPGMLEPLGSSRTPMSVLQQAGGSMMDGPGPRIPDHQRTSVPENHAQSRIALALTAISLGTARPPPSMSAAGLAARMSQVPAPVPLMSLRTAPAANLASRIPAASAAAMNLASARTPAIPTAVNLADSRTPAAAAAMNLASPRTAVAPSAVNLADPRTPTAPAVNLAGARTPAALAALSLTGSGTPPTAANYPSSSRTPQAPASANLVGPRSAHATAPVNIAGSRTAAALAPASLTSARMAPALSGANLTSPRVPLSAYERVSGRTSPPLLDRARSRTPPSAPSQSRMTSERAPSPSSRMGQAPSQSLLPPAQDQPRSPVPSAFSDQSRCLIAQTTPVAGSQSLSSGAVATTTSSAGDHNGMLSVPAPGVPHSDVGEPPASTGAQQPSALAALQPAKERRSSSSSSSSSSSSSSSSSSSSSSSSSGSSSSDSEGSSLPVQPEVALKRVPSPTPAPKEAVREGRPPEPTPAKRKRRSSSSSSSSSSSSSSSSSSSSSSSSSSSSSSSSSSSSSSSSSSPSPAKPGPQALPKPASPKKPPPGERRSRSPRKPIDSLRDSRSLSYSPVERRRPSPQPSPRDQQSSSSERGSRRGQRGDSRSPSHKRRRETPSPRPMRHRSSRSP

The target of assay [1] is GRK5-Flag (Flag-tagged G protein-coupled receptor kinase 5) (bovine) (UniProt P43249). The assay can be described thus: affinity purification with mass spectrometry; lysate of HUVEC cells transiently expressing GRK5-Flag (GFP cells as control); IP buffer; anti-FLAG M2 affinity gel, 4°C, 8 h; excised gel bands analysed by LC-MS/MS.
Assay [2] has the same target. The assay can be described thus: affinity purification with mass spectrometry; lysate of MDA-MB-231 cells stably expressing GRK5-Flag (GFP cells as control); IP buffer (50 mM Tris.HCl pH 7.5, 150 mM NaCl, 0.5% NP-40, 10% glycerol, 1 mM EDTA); anti-FLAG M2 affinity gel, 4°C, 8 h; excised gel bands analysed by LC-MS/MS.

No constants are given. Whether binding was seen depends on the method and setting. Binding seen in cells or lysates may run through a third protein. Here binding means that the protein was enriched with, or labelled near, the bait; the list need not be complete.

Take “CUL4B, endogenous (from UniProt Q13620 1-913)”: the binding entry in assay [1] and in assay [2] was “binds” in each case.

With “Myosin-9 (MYH9) (from UniProt P35579 1-1960)”, in assay [2], the binding entry is “binds”.

For the molecule “WD40-repeat protein 22 (WDR22) (from UniProt Q96JK2 1-942)”, the binding entry in assay [1] and in assay [2] was “binds” each time.

Consider WDR82 (from UniProt Q6UXN9 1-313), for which, in assay [1], the binding result is reported as “binds”.

Turning to “damaged DNA-binding protein 1 (DDB1), endogenous (from UniProt Q16531 1-1140)”, the binding entry in assay [1] and in assay [2] was “binds” in each case.

For “glutamate-rich WD40-repeat protein 1 (GRWD1) (from UniProt Q9BQ67 1-446)”, the binding entry in assay [1] and in assay [2] was “binds” in each case.

For the molecule “heat shock protein Hsp90-alpha (Hsp90AA1) (from UniProt P07900 1-732)”, the binding result in assay [2] is recorded as “binds”.

In the case of “heat shock protein Hsp90-beta (Hsp90AB1) (from UniProt P08238 1-724)”, the binding entry in assay [2] was “binds”.

For “serine/arginine repetitive matrix 2 (SRRM2) (from UniProt Q9UQ35 1-2752)”, the binding result in assay [1] and in assay [2] was “binds” each time.

B1: COP9 signalosome complex subunit 7a (COPS7A) (protein, UniProt Q9UBW8 1-275)
chain: MSAEVKVTGQNQEQFLLLAKSAKGAALATLIHQVLEAPGVYVFGELLDMPNVRELAESDFASTFRLLTVFAYGTYADYLAEARNLPPLTEAQKNKLRHLSVVTLAAKVKCIPYAVLLEALALRNVRQLEDLVIEAVYADVLRGSLDQRNQRLEVDYSIGRDIQRQDLSAIARTLQEWCVGCEVVLSGIEEQVSRANQHKEQQLGLKQQIESEVANLKKTIKVTTAAAAAATSQDPEQHLTELREPAPGTNQRQPSKKASKGKGLRGSAKIWSKSN
Consider B1, for which the binding result in assay [1] and in assay [2] was “binds” in each case.

B2: AP-3 complex subunit delta 1 (AP3D1) (protein, UniProt O14617 1-1153)
chain: MALKMVKGSIDRMFDKNLQDLVRGIRNHKEDEAKYISQCIDEIKQELKQDNIAVKANAVCKLTYLQMLGYDISWAAFNIIEVMSASKFTFKRIGYLAASQSFHEGTDVIMLTTNQIRKDLSSPSQYDTGVALTGLSCFVTPDLARDLANDIMTLMSHTKPYIRKKAVLIMYKVFLKYPESLRPAFPRLKEKLEDPDPGVQSAAVNVICELARRNPKNYLSLAPLFFKLMTSSTNNWVLIKIIKLFGALTPLEPRLGKKLIEPLTNLIHSTSAMSLLYECVNTVIAVLISLSSGMPNHSASIQLCVQKLRILIEDSDQNLKYLGLLAMSKILKTHPKSVQSHKDLILQCLDDKDESIRLRALDLLYGMVSKKNLMEIVKKLMTHVDKAEGTTYRDELLTKIIDICSQSNYQYITNFEWYISILVELTRLEGTRHGHLIAAQMLDVAIRVKAIRKFAVSQMSALLDSAHLLASSTQRNGICEVLYAAAWICGEFSEHLQEPHHTLEAMLRPRVTTLPGHIQAVYVQNVVKLYASILQQKEQAGEAEGAQAVTQLMVDRLPQFVQSADLEVQERASCILQLVKHIQKLQAKDVPVAEEVSALFAGELNPVAPKAQKKVPVPEGLDLDAWINEPLSDSESEDERPRAVFHEEEQRRPKHRPSEADEEELARRREARKQEQANNPFYIKSSPSPQKRYQDTPGVEHIPVVQIDLSVPLKVPGLPMSDQYVKLEEERRHRQKLEKDKRRKKRKEKEKKGKRRHSSLPTESDEDIAPAQQVDIVTEEMPENALPSDEDDKDPNDPYRALDIDLDKPLADSEKLPIQKHRNTETSKSPEKDVPMVEKKSKKPKKKEKKHKEKERDKEKKKEKEKKKSPKPKKKKHRKEKEERTKGKKKSKKQPPGSEEAAGEPVQNGAPEEEQLPPESSYSLLAENSYVKMTCDIRGSLQEDSQVTVAIVLENRSSSILKGMELSVLDSLNARMARPQGSSVHDGVPVPFQLPPGVSNEAQYVFTIQSIVMAQKLKGTLSFIAKNDEGATHEKLDFRLHFSCSSYLITTPCYSDAFAKLLESGDLSMSSIKVDGIRMSFQNLLAKICFHHHFSVVERVDSCASMYSRSIQGHHVCLLVKKGENSVSVDGKCSDSTLLSNLLEEMKATLAKC
With B2, the binding entry in assay [1] and in assay [2] was “binds” each time.
